Measurements reported in paper doi:10.1101/683508.
No constants are given. Whether binding was seen depends on the method and setting. In cells and extracts the contact can be indirect. Some entries that bind do so weakly or less than the wild type. One block for each molecule: values may come before it.

Chains of the proteins cited; added tags and fusions are not shown.
UniProt Q9UHP3: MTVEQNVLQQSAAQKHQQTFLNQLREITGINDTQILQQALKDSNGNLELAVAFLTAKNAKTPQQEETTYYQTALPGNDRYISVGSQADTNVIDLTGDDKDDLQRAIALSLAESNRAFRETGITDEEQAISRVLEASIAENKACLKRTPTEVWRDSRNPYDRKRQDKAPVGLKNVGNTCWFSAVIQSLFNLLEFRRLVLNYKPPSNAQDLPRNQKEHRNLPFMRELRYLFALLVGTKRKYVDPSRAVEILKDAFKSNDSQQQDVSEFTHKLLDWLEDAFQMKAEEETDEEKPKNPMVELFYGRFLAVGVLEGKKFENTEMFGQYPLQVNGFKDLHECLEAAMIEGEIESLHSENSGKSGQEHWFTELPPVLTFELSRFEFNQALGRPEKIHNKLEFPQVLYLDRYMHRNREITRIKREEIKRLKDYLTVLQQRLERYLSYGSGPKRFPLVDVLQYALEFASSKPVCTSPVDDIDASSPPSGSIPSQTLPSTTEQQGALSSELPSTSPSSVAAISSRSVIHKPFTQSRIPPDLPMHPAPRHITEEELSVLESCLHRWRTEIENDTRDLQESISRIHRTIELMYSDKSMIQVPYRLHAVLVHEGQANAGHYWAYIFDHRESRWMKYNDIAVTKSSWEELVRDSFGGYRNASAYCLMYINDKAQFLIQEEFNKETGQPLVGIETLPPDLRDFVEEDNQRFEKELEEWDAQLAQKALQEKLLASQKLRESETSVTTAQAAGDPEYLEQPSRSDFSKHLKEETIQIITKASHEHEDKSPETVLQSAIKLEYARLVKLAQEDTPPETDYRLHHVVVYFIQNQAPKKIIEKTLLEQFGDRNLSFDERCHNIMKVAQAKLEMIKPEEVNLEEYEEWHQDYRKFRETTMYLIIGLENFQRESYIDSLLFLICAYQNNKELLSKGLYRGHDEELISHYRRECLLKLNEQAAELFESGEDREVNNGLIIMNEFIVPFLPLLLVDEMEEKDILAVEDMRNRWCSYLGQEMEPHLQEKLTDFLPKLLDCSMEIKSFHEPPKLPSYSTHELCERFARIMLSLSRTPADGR
UniProt Q96RU2: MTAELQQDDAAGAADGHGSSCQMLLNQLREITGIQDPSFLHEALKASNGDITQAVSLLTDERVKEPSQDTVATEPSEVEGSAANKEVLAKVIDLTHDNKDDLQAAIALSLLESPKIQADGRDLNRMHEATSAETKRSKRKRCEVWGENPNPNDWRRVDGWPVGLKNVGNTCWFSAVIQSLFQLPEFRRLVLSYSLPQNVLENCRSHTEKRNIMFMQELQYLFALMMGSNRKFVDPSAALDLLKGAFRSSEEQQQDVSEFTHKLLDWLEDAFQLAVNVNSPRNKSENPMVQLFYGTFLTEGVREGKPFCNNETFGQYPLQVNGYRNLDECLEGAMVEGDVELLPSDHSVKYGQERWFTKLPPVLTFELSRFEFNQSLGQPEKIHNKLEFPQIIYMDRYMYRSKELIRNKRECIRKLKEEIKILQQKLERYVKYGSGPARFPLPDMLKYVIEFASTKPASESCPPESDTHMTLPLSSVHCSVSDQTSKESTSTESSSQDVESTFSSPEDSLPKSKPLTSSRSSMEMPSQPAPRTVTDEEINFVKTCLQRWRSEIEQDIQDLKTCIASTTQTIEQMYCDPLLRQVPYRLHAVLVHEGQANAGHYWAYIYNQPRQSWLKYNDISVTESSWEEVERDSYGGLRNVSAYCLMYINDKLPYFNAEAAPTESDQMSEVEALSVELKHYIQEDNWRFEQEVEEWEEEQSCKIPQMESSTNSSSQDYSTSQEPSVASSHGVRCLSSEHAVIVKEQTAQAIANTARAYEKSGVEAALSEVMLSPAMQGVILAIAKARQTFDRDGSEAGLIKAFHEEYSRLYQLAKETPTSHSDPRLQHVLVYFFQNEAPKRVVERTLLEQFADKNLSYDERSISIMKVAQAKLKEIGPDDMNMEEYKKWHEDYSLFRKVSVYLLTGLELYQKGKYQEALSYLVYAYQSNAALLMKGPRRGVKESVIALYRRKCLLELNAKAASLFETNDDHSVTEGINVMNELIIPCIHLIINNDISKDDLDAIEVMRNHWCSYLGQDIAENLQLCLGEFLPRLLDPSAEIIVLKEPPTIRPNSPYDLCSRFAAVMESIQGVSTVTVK

Assays:
Experiment in all cases: co-IP
[1] = target: T1, endogenous ΔNp63 (human (endogenous in A431)) (UniProt Q9H3D4)
T1 sequence: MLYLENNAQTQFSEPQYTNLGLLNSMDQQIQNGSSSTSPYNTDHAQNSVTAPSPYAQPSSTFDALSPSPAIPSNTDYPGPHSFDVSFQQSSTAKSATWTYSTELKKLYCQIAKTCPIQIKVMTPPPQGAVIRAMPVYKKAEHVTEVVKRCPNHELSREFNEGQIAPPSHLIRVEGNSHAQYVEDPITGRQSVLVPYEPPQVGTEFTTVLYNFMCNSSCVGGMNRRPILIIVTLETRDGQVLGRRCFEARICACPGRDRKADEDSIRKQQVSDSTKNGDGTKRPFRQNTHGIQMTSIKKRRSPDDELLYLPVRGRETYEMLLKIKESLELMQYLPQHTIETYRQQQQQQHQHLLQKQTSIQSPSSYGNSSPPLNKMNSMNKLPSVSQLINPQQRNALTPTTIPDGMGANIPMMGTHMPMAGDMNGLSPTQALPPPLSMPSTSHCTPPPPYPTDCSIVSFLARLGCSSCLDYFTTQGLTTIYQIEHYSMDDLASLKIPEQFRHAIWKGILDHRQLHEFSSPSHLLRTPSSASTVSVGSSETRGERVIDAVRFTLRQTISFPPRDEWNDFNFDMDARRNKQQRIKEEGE

[2] = target: endogenous USP25 (human (endogenous in A431)) (UniProt Q9UHP3)
[3] = target: endogenous USP28 (human (endogenous in A431)) (UniProt Q96RU2)

binding [1]: no binding
Molecule: endogenous USP25 (from UniProt Q9UHP3 1-1055) (enzyme)

binding [2]: no binding
binding [3]: binds
B1: endogenous ΔNp63 (protein, UniProt Q9H3D4-2 1-586)
chain: T1 sequence
